# Where two headings read alike, the source gives them in different places. These are yes or no findings as the source states them, for the method shown. In cells and extracts the contact can be indirect. Some entries that bind do so weakly or less than the wild type. For some assays here: Tags and fused reporters may be left off the sequences shown.
# Chains of the proteins cited; added tags and fusions are not shown. Residues count along the entry.
# UniProt Q68DV7, residues 24-783: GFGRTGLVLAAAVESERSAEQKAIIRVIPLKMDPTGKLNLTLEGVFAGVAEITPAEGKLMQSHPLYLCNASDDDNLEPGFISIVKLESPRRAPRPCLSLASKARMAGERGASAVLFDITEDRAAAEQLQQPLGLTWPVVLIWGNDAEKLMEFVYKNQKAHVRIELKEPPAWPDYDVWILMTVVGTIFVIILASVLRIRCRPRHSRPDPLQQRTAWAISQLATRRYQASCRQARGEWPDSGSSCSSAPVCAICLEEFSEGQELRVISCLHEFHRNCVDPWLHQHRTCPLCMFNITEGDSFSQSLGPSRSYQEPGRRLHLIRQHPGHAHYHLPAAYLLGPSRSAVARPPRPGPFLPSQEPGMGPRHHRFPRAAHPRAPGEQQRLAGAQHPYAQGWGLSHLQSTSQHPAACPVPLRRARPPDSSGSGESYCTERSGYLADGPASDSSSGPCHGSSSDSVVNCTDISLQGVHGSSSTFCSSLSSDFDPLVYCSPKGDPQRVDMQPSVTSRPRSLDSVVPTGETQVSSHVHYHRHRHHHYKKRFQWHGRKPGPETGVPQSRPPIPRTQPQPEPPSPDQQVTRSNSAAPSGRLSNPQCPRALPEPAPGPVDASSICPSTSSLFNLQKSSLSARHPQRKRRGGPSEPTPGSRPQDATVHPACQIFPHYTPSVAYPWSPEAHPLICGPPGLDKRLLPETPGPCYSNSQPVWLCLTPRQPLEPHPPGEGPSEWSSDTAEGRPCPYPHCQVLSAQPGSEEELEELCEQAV
# UniProt P49674: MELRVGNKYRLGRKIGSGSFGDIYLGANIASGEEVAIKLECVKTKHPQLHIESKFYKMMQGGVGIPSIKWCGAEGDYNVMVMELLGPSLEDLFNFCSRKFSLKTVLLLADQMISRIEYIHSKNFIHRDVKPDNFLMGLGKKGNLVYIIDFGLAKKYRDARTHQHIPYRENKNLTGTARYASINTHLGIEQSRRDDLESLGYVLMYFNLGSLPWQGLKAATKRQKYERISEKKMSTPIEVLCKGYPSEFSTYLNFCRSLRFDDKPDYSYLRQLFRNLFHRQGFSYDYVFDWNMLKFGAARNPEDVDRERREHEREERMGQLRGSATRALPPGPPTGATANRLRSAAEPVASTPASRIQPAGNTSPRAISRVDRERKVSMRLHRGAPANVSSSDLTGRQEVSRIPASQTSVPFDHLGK
# T1: N-terminally HA-tagged PRICKLE3 (human) (UniProt O43900)
# T1 sequence: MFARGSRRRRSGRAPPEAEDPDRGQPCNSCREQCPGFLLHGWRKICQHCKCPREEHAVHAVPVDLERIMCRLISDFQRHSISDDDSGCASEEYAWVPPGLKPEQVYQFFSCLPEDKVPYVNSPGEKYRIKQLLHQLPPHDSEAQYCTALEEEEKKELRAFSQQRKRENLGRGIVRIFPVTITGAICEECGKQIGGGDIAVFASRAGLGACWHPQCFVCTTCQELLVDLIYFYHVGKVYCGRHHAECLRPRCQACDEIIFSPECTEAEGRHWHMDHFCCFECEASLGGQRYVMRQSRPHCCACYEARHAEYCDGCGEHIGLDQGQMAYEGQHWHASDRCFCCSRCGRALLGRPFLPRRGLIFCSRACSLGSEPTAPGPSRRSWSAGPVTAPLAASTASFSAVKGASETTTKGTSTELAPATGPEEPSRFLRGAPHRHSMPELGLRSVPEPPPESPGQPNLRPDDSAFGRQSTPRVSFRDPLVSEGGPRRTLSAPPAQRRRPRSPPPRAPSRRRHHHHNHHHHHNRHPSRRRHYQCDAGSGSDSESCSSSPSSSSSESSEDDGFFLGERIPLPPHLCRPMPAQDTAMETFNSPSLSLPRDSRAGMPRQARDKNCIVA
# T2: N-terminally HA-tagged PRICKLE1 (human) (UniProt Q96MT3)
# T2 sequence: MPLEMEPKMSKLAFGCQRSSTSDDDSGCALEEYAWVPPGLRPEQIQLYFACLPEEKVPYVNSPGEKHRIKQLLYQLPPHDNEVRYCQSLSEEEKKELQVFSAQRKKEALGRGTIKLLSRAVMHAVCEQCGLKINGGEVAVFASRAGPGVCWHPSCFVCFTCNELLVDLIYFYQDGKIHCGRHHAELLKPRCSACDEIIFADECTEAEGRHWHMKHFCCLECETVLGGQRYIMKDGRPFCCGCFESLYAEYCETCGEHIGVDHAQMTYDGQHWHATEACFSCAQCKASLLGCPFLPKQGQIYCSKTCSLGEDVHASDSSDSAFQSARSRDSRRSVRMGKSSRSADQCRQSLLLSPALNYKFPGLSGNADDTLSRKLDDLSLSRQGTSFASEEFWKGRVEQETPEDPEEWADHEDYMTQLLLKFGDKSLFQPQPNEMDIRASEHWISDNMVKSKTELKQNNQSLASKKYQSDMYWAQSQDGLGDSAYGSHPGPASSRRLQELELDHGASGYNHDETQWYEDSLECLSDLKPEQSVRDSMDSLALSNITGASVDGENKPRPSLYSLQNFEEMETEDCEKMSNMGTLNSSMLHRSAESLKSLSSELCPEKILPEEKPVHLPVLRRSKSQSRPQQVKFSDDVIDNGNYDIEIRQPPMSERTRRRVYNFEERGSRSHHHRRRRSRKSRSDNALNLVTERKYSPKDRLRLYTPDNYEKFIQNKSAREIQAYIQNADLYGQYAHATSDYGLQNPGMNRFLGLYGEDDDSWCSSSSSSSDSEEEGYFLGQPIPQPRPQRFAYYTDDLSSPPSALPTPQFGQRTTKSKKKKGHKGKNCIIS
# Experiments:
# Test in all cases: co-IP
# [1] = target: T1, N-terminally HA-tagged PRICKLE3 (human)
# [2] = target: RNF43-FLAG (E3 ubiquitin-protein ligase Ring finger protein 43, FLAG-tagged, wild type) (UniProt Q68DV7)
# [3] = target: T2, N-terminally HA-tagged PRICKLE1 (human)
# [4] = target: T1, N-terminally HA-tagged PRICKLE3 (human); remark: listed apart in the source
binding [1],binding [2],binding [3],binding [4],Molecule
binds,binds,–,–,"Casein kinase 1 ε (CK1ε), endogenous (from UniProt P49674 1-416) (enzyme)"
binds,–,–,–,"RNF43-FLAG (E3 ubiquitin-protein ligase Ring finger protein 43, FLAG-tagged, wild type) (from UniProt Q68DV7 24-783) (enzyme)"
–,–,binds,binds,"VANGL1 (Van Gogh-like 1), endogenous (protein, UniProt Q8TAA9 1-524) MDTESTYSGYSYYSSHSKKSHRQGERTRERHKSPRNKDGRGSEKSVTIQPPTGEPLLGNDSTRTEEVQDDNWGETTTAITGTSEHSISQEDIARISKDMEDSVGLDCKRYLGLTVASFLGLLVFLTPIAFILLPPILWRDELEPCGTICEGLFISMAFKLLILLIGTWALFFRKRRADMPRVFVFRALLLVLIFLFVVSYWLFYGVRILDSRDRNYQGIVQYAVSLVDALLFIHYLAIVLLELRQLQPMFTLQVVRSTDGESRFYSLGHLSIQRAALVVLENYYKDFTIYNPNLLTASKFRAAKHMAGLKVYNVDGPSNNATGQSRAMIAAAARRRDSSHNELYYEEAEHERRVKKRKARLVVAVEEAFIHIQRLQAEEQQKAPGEVMDPREAAQAIFPSMARALQKYLRITRQQNYHSMESILQHLAFCITNGMTPKAFLERYLSAGPTLQYDKDRWLSTQWRLVSDEAVTNGLRDGIVFVLKCLDFSLVVNVKKIPFIILSEEFIDPKSHKFVLRLQSETSV"

# Reference: article doi:10.1101/2025.03.24.644882
